Tested on: Klebsiella pneumoniae ST258
Type: cell-based
Settings: dose-response in Muller-Hinton broth, Figure 3D
Protocol: It was determined using the broth microdilution assay in accordance with the procedures from the Clinical and Laboratory Standards Institute. For broth microdilution assays, pathogenic bacteria, such as Escherichia coli ATCC 25922, Staphylococcus aureus ATCC 25923, Pseudomonas aeruginosa ATCC 27853 and Klebsiella pneumoniae ST258, were cultured in Mueller-Hinton broth (MHB) at 37 °C until an end point between of 0.08 and 0.13 units of absorbance at 625 nm and diluted 1:100 in MHB (ca. 1 × 10^8 CFU/mL). […]
E. coli, S. aureus, P. aeruginosa and K. pneumoniae were grown in the presence of each of the four AMPs, and in the presence of each of the eight commercial antibiotics, which were Levofloxacin, Trimethoprim, Sulfamethoxazole, Azithromycin, Amoxicillin, Ceftriaxone, Gentamicin and Vancomycin, and in combinations of AMPs and the antibiotics. That is, the antimicrobial capacity of each AMP (50, 25, 12.5 and 6.2 µg/ mL) in combination with each antibiotic agent (50, 25, 12.5, 3.2, 1.6 and 0 µg/ mL) was measured as described above. For evaluation of the effect of the mixtures, the fractional inhibitory concentration (FIC) was calculated for each antibiotic in each combination. […]

## Cc1cc(NS(=O)(=O)c2ccc(N)cc2)no1 [Sulfamethoxazole]
  Antibiotic concentration in whose presence K. pneumoniae could grow (up to): up to 50 µg/mL
